Results from PubChem BioAssay AID662 (National Center for Advancing Translational Sciences (NCATS), 2007).
The list shows a part of the results. Shown are side measurements of this screen, not its main read-out; they come without a call. Most of these compounds were active or inconclusive in the main read-out, so they are no random draw. The note in brackets gives the kind of curve behind each potency; many fits are weak.

assay: Cell signaling CRE-BLA (Fsk stim); details: CHO CRE-bla reporter (cAMP response element driving beta-lactamase), forskolin EC10, beta-lactamase ratio; measured here: 460 nm blue channel
Summary of the method: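 Titrated compounds plus EC10 NKH 477 on CHO CRE-bla cells, 3 h, 37 °C. CCF4, 2 h RT. Ratio 460/530 nm → AC50.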

Q: With `CCN(CC)c1nc(Nc2ccccc2)nc(Oc2ccc(=O)n(C)n2)n1` as the compound, how does the AC50 read?
A: 2.51 µM [rising, partial curve]

Q: Which AC50 does the source give for `COC(=O)c1cc(NC2c3ncccc3C(=O)N2Cc2ccccc2)cc(C(=O)OC)c1` (stereo not drawn) here?
A: 2.51 µM [rising, partial curve, poor fit]

Q: With `O=C(NC(NC1CCS(=O)(=O)C1)C(=O)c1ccccc1)c1ccc(Cl)cc1` (stereo not drawn) as the compound, how does the AC50 read?
A: 0.1 µM [falling, full curve, poor fit]

Q: With `CC(=O)c1cc(C)ccc1OC(=O)c1cccc2nc(C)oc12` as the compound, how does the AC50 read?
A: 1 µM [rising, full curve]

Q: For `Cc1ccc(-c2nc(-c3nccc4ccccc34)oc2-c2ccccc2)cc1`, which AC50 is on record?
A: 0.0251 µM [falling, single point]

Q: With `CCOc1ccc(Nc2nc(C)cc(C)c2C#N)cc1` as the compound, how does the AC50 read?
A: 25.1 µM [rising, single point]

Q: Which AC50 does the source give for `COc1ccc(CNc2cc(-c3cccc(C#N)c3)ncn2)c(OC)c1` here?
A: 7.94 µM [rising, partial curve]

Q: Which AC50 does the source give for `CCc1cc(C=NC2CCCCC2)c(O)s1` here?
A: 0.398 µM [falling, partial curve]

Q: Which AC50 does the source give for `COC(=O)c1nc(-c2ccccc2)oc1N(C)C` here?
A: 10 µM [rising, single point]

Q: Which AC50 does the source give for `CN1CCN(c2ncc3ncc(=O)n(-c4ccccc4)c3n2)CC1` here?
A: 12.6 µM [rising, partial curve, poor fit]

Q: With `N[C@@H](Cc1ccccc1)c1nnc(SCc2ccccc2F)o1` as the compound, how does the AC50 read?
A: 5.01 µM [falling, single point]

Q: With `CCOC(=O)c1sc(=S)n2c1[nH]c(=O)c1ccc(C(=O)OC)cc12` as the compound, how does the AC50 read?
A: 0.316 µM [rising, full curve, poor fit]

Q: For `Cc1ccc(C)c(N2CCN(C(=O)CCS(=O)(=O)c3cccc4nonc34)CC2)c1`, which AC50 is on record?
A: 0.00398 µM [falling, full curve, poor fit]

Q: Which AC50 does the source give for `CN(C)c1ncnc2ccc(-c3ccccc3C#N)cc12` here?
A: 2.51 µM [rising, full curve]

Q: For `Cc1sc2nc(SCC(=O)NCCO)n(C)c(=O)c2c1C`, which AC50 is on record?
A: 12.6 µM [rising, partial curve]

Q: Which AC50 does the source give for `O=C(Nn1cnnc1)c1ccccc1-c1ccccc1` here?
A: 0.00398 µM [falling, partial curve, poor fit]

Q: With `Cc1cc(C)c(C(=O)COC(=O)Cn2cnnn2)cc1C` as the compound, how does the AC50 read?
A: 0.01 µM [falling, full curve, poor fit]

Q: For `COc1ccc(OC)c(C(C)NC(=O)c2ccco2)c1` (stereo not drawn), which AC50 is on record?
A: 0.316 µM [rising, partial curve]

Q: Which AC50 does the source give for `Cc1ccc(-c2[nH]nc3c2C(c2cccnc2)C(C#N)=C(N)O3)cc1` (stereo not drawn) here?
A: 10 µM [rising, partial curve]

Q: Which AC50 does the source give for `N=C(N)S/C=C\C(=O)O` here?
A: 7.94 µM [rising, partial curve, poor fit]

Q: For `COC(=O)[C@@]1(Cc2ccc(F)cc2)[C@H]2c3cc(C(=O)N(C)C)n(Cc4cc(C)n(C)n4)c3C[C@H]2CN1C(=O)c1ccccc1`, which AC50 is on record?
A: 1.26 µM [rising, partial curve]

Q: For `Cc1cc(NC(=O)c2cnn3c(C(F)F)cc(C4CC4)nc23)no1`, which AC50 is on record?
A: 2 µM [rising, single point]

Q: With `C=CCNc1oc(-c2ccc(OC)cc2)nc1C#N` as the compound, how does the AC50 read?
A: 15.8 µM [rising, single point]

Q: Which AC50 does the source give for `C=CCNC(=O)C1CCCN(S(C)(=O)=O)C1` (stereo not drawn) here?
A: 25.1 µM [falling, single point]

Q: With `O=C(CC(SCc1ccco1)c1ccc(O)cc1)c1cccs1` (stereo not drawn) as the compound, how does the AC50 read?
A: 0.126 µM [falling, full curve]

Q: With `O=C(O)C1C2C=CC(C2)C1C(=O)Nc1ccc(C(=O)N2CCCCC2)cc1` (stereo not drawn) as the compound, how does the AC50 read?
A: 0.00398 µM [falling, full curve, poor fit]

Q: For `COc1ccc(-c2nn3cnnc3s2)cc1OC`, which AC50 is on record?
A: 7.94 µM [rising, partial curve]

Q: For `Cc1c(C(=O)Nc2cnccn2)oc2ccccc12`, which AC50 is on record?
A: 10 µM [rising, single point]

Q: Which AC50 does the source give for `COC(=O)C1=C(C)NC(C)=C(C(=O)OC)C1C(=O)OC1CCCCC1=O` (stereo not drawn) here?
A: 3.98 µM [falling, partial curve]

Q: With `Brc1ccc(CSc2nnc(Cc3c[nH]c4ccccc34)o2)cc1` as the compound, how does the AC50 read?
A: 12.6 µM [falling, partial curve]

Q: Which AC50 does the source give for `O=C(NCc1ccco1)c1cnn2c(C(F)(F)F)cc(-c3ccccc3)nc12` here?
A: 10 µM [rising, partial curve]

Q: Which AC50 does the source give for `CCN(CC)CCOc1ncnc2c1oc1ccccc12` here?
A: 0.126 µM [falling, full curve, poor fit]

Q: With `CCN(c1ccc(OC)cc1)S(=O)(=O)c1ccc2c(c1)CCN2C(=O)CCC(=O)O` as the compound, how does the AC50 read?
A: 0.01 µM [falling, full curve, poor fit]

Q: Which AC50 does the source give for `CN(C)c1ccc(/C=C2/C(=O)Nc3ccccc32)cc1` here?
A: 20 µM [falling, partial curve]

Q: With `O=C(Nc1ccccc1)N1CCCC2(CCN(C(=O)c3cc(C(F)(F)F)cc(C(F)(F)F)c3)CC2)C1` as the compound, how does the AC50 read?
A: 10 µM [falling, single point]

Q: Which AC50 does the source give for `Cn1c(=O)[nH]c(=O)c2c1nc(N1CCCC1)n2CCCSc1nc2ccccc2o1` here?
A: 5.01 µM [rising, partial curve]

Q: For `COc1ccc(C/C(O)=C(\C#N)c2nc3ccccc3[nH]2)cc1OC`, which AC50 is on record?
A: 3.16 µM [rising, full curve]

Q: With `O=C(NCc1ccco1)c1scc2c1OCCO2` as the compound, how does the AC50 read?
A: 0.501 µM [falling, partial curve, poor fit]

Q: For `CCc1cc2c(=O)c(-c3nc4ccccc4n3C)c(C)oc2c(CN2CCOCC2)c1O`, which AC50 is on record?
A: 1 µM [falling, partial curve]

Q: With `COc1cc(NS(C)(=O)=O)ccc1Nc1c2ccccc2nc2ccccc12` as the compound, how does the AC50 read?
A: 25.1 µM [rising, partial curve]

Q: Which AC50 does the source give for `O=C1N(CN2CCC3(CC2)OCCO3)c2ccccc2C12OCCCO2` here?
A: 0.251 µM [falling, full curve, poor fit]

Q: Which AC50 does the source give for `Cc1ccc(C(=O)NC2CCS(=O)(=O)C2)cc1S(=O)(=O)N1CCOCC1` (stereo not drawn) here?
A: 2.51 µM [falling, partial curve, poor fit]

Q: Which AC50 does the source give for `Cc1nc2ccccc2c(=O)n1C1CCCCCC1` here?
A: 10 µM [rising, partial curve]

Q: With `Cc1onc(-c2c(F)cccc2Cl)c1C(=O)OCC(=O)Nc1c(C)n(C)n(-c2ccccc2)c1=O` as the compound, how does the AC50 read?
A: 0.0398 µM [falling, full curve, poor fit]

Q: With `CC1(C)CC(n2c(NCCO)nc3c(c2=O)C2(CCCC2)Cc2ccccc2-3)CCO1` (stereo not drawn) as the compound, how does the AC50 read?
A: 7.94 µM [rising, partial curve]

Q: With `CS(=O)(=O)N1CCC2(CCCN(C(c3ccccc3)c3ccccc3)C2)CC1` as the compound, how does the AC50 read?
A: 12.6 µM [rising, partial curve]

Q: With `CCN1C(=O)c2cccc3c(S(=O)(=O)Nc4nc(C)cs4)ccc1c23` as the compound, how does the AC50 read?
A: 7.94 µM [rising, partial curve]

Q: For `CCN(CC)S(=O)(=O)c1ccc(Cl)c(C(=O)OC)c1`, which AC50 is on record?
A: 0.00398 µM [falling, full curve]

Q: For `CCOC(=O)CSC1=C(C#N)C(c2ccccc2OCC)C(C#N)C(=O)N1` (stereo not drawn), which AC50 is on record?
A: 10 µM [rising, partial curve]

Q: For `Cc1nn(C)c(C)c1S(=O)(=O)NC1CCCC1`, which AC50 is on record?
A: 0.158 µM [falling, full curve, poor fit]

Q: With `CC(NC(=O)c1nn(C)c(=O)c2ccccc12)c1ccc(F)cc1` (stereo not drawn) as the compound, how does the AC50 read?
A: 25.1 µM [rising, single point]

Q: Which AC50 does the source give for `O=C(NCCc1c[nH]c2ccccc12)c1cccnc1` here?
A: 5.01 µM [rising, single point]

Q: For `COc1ccc(C2C(C(=O)NCCN(C)C)c3ccccc3C(=O)N2C)cc1OC` (stereo not drawn), which AC50 is on record?
A: 12.6 µM [falling, partial curve]

Q: Which AC50 does the source give for `Cc1ccc(NC(=O)CN(C)S(=O)(=O)c2cccs2)cc1F` here?
A: 0.398 µM [falling, partial curve]

Q: With `Cc1c(C(=O)N2CCc3ccccc32)oc2c1C(=O)CC(C)(C)C2` as the compound, how does the AC50 read?
A: 7.94 µM [falling, partial curve, poor fit]

Q: With `CCn1cc(C(=O)OCc2ccc(F)cc2)c(=O)c2ccc(C)nc21` as the compound, how does the AC50 read?
A: 12.6 µM [rising, partial curve]

Q: With `Cc1nnc2ccc(N3CCN(c4cccc(C(F)(F)F)c4)CC3)nn12` as the compound, how does the AC50 read?
A: 25.1 µM [falling, single point]

Q: For `COC(=O)c1ccc(CSc2nc3ccccc3c(=O)n2-c2ccc(OC)c(OC)c2)o1`, which AC50 is on record?
A: 10 µM [rising, partial curve]

Q: For `CSc1nc(N2CCOCC2)c2c3c(sc2n1)CCC3`, which AC50 is on record?
A: 10 µM [rising, partial curve]

Q: With `CCC(=O)Nc1cc(-c2nn(C)c(=O)c3ccccc23)ccc1OC` as the compound, how does the AC50 read?
A: 15.8 µM [rising, single point]

Q: Which AC50 does the source give for `c1ccc(-c2nc3ccccc3nc2N2CCOCC2)cc1` here?
A: 12.6 µM [rising, single point]

Q: With `Cc1cc(C)n(-c2nc3ccccc3c3nc(C)nn23)n1` as the compound, how does the AC50 read?
A: 7.94 µM [rising, partial curve]

Q: Which AC50 does the source give for `CCCc1nc2oc3c(NCCN4CCOCC4)ncnc3c2c2c1CCCC2` here?
A: 1.26 µM [rising, full curve, poor fit]

Q: For `c1ccc(-n2ncc3c(NCc4ccc5c(c4)OCO5)ncnc32)cc1`, which AC50 is on record?
A: 1.26 µM [rising, full curve]

Q: With `NC(=O)SCC(=O)Nc1ccc2ncccc2c1` as the compound, how does the AC50 read?
A: 0.126 µM [falling, partial curve]

Q: With `CC1(C)CC(=O)C2=C(C1)OC(/N=C/N1CCOCC1)=C(C#N)C2c1ccccc1` (stereo not drawn) as the compound, how does the AC50 read?
A: 1.58 µM [rising, partial curve]

Q: Which AC50 does the source give for `COc1ccc(-c2nc3cnc(N4CCOCC4)nc3n(C)c2=O)cc1` here?
A: 10 µM [rising, partial curve]

Q: Which AC50 does the source give for `COc1ccc2c(OC)c3ccoc3nc2c1OC` here?
A: 25.1 µM [rising, partial curve]
